PubChem BioAssay AID1259405 | NCATS, 2018
This is a random part of about 50,000 deposited reagents. Over the whole deposit, about 4,000 (8%) were called active. 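Mouse siRNA library applied to hamster cells; one well for each siRNA.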 The numbers tell different reagents against one gene apart. Reagent sequences are not shown.

Assay: 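Knock-downs that lift recombinant protein yield in hamster ovary cells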 (primary screen)
Cells: Chinese hamster CHO-K1 ovary cells with stable secreted eGFP expression
Reagents: single siRNA against mouse genes, 0.8 pmol siRNA per well (2 µl of 400 nM stock)
Timing: 3 days
Detection: 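Per-well intracellular GFP measured by laser scanning cytometry, plus viability from ATP luminescence, each relative to plate median of non-targeting control wells, in %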
Scale: GFP, % of control: higher = more GFP per well, higher productivity; viability (ATP), % of control: higher = more viable cells (more ATP)
Hit rule: 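Called active when intracellular GFP, relative to negative control, is at or above 120%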

The first 6 records as a preview:
{"gene": "Top3a", "reagent no.": 1, "GFP, % of control": 81.2, "viability (ATP), % of control": 110, "outcome": "inactive"}
{"gene": "Top3a", "reagent no.": 2, "GFP, % of control": 91.6, "viability (ATP), % of control": 95.6, "outcome": "inactive"}
{"gene": "Srf", "reagent no.": 1, "GFP, % of control": 63, "viability (ATP), % of control": 56.2, "outcome": "inactive"}
{"gene": "Srf", "reagent no.": 2, "GFP, % of control": 90.7, "viability (ATP), % of control": 84.9, "outcome": "inactive"}
{"gene": "Srf", "reagent no.": 3, "GFP, % of control": 34.5, "viability (ATP), % of control": 61.8, "outcome": "inactive"}
{"gene": "Fgf11", "reagent no.": 1, "GFP, % of control": 52.7, "viability (ATP), % of control": 59.4, "outcome": "inactive"}

The listing, repeating the preview:
{"gene": "Top3a", "reagent no.": 1, "GFP, % of control": 81.2, "viability (ATP), % of control": 110, "outcome": "inactive"}
{"gene": "Top3a", "reagent no.": 2, "GFP, % of control": 91.6, "viability (ATP), % of control": 95.6, "outcome": "inactive"}
{"gene": "Srf", "reagent no.": 1, "GFP, % of control": 63, "viability (ATP), % of control": 56.2, "outcome": "inactive"}
{"gene": "Srf", "reagent no.": 2, "GFP, % of control": 90.7, "viability (ATP), % of control": 84.9, "outcome": "inactive"}
{"gene": "Srf", "reagent no.": 3, "GFP, % of control": 34.5, "viability (ATP), % of control": 61.8, "outcome": "inactive"}
{"gene": "Fgf11", "reagent no.": 1, "GFP, % of control": 52.7, "viability (ATP), % of control": 59.4, "outcome": "inactive"}
{"gene": "Fgf11", "reagent no.": 2, "GFP, % of control": 53.9, "viability (ATP), % of control": 81.6, "outcome": "inactive"}
{"gene": "Fgf11", "reagent no.": 3, "GFP, % of control": 75.7, "viability (ATP), % of control": 65.3, "outcome": "inactive"}
{"gene": "Tas2r115", "reagent no.": 1, "GFP, % of control": 78.8, "viability (ATP), % of control": 78.7, "outcome": "inactive"}
{"gene": "Tas2r115", "reagent no.": 2, "GFP, % of control": 55.6, "viability (ATP), % of control": 58.8, "outcome": "inactive"}
{"gene": "Tas2r115", "reagent no.": 3, "GFP, % of control": 89.5, "viability (ATP), % of control": 85.9, "outcome": "inactive"}
{"gene": "Zfp248", "reagent no.": 1, "GFP, % of control": 64.1, "viability (ATP), % of control": 80.2, "outcome": "inactive"}
{"gene": "Zfp248", "reagent no.": 2, "GFP, % of control": 124, "viability (ATP), % of control": 102, "outcome": "active"}
{"gene": "Zfp248", "reagent no.": 3, "GFP, % of control": 68.1, "viability (ATP), % of control": 90.4, "outcome": "inactive"}
{"gene": "Usp17lc", "reagent no.": 1, "GFP, % of control": 53.7, "viability (ATP), % of control": 78.9, "outcome": "inactive"}
{"gene": "Usp17lc", "reagent no.": 2, "GFP, % of control": 28.6, "viability (ATP), % of control": 28.9, "outcome": "inactive"}
{"gene": "Usp17lc", "reagent no.": 3, "GFP, % of control": 79.3, "viability (ATP), % of control": 55.4, "outcome": "inactive"}
{"gene": "Rapgef6", "reagent no.": 1, "GFP, % of control": 37.8, "viability (ATP), % of control": 43.2, "outcome": "inactive"}
{"gene": "Rapgef6", "reagent no.": 2, "GFP, % of control": 72.5, "viability (ATP), % of control": 75.4, "outcome": "inactive"}
{"gene": "Rapgef6", "reagent no.": 3, "GFP, % of control": 73.6, "viability (ATP), % of control": 67.6, "outcome": "inactive"}
{"gene": "Slc5a7", "reagent no.": 1, "GFP, % of control": 88.1, "viability (ATP), % of control": 86.6, "outcome": "inactive"}
{"gene": "Slc5a7", "reagent no.": 2, "GFP, % of control": 63.2, "viability (ATP), % of control": 64, "outcome": "inactive"}
{"gene": "Slc5a7", "reagent no.": 3, "GFP, % of control": 94.2, "viability (ATP), % of control": 88.5, "outcome": "inactive"}
{"gene": "B4galt3", "reagent no.": 1, "GFP, % of control": 94.6, "viability (ATP), % of control": 96, "outcome": "inactive"}
{"gene": "B4galt3", "reagent no.": 2, "GFP, % of control": 91.7, "viability (ATP), % of control": 89.9, "outcome": "inactive"}
{"gene": "B4galt3", "reagent no.": 3, "GFP, % of control": 77.9, "viability (ATP), % of control": 125, "outcome": "inactive"}
{"gene": "Folr1", "reagent no.": 1, "GFP, % of control": 76.8, "viability (ATP), % of control": 107, "outcome": "inactive"}
{"gene": "Folr1", "reagent no.": 2, "GFP, % of control": 103, "viability (ATP), % of control": 87.6, "outcome": "inactive"}
{"gene": "Folr1", "reagent no.": 3, "GFP, % of control": 101, "viability (ATP), % of control": 91.1, "outcome": "inactive"}
{"gene": "Vnn1", "reagent no.": 1, "GFP, % of control": 91.8, "viability (ATP), % of control": 82.6, "outcome": "inactive"}
{"gene": "Vnn1", "reagent no.": 2, "GFP, % of control": 76.4, "viability (ATP), % of control": 66, "outcome": "inactive"}
{"gene": "Vnn1", "reagent no.": 3, "GFP, % of control": 140, "viability (ATP), % of control": 149, "outcome": "active"}
{"gene": "Fmnl2", "reagent no.": 1, "GFP, % of control": 47.8, "viability (ATP), % of control": 71, "outcome": "inactive"}
{"gene": "Fmnl2", "reagent no.": 2, "GFP, % of control": 74.5, "viability (ATP), % of control": 79.6, "outcome": "inactive"}
{"gene": "Fmnl2", "reagent no.": 3, "GFP, % of control": 52.4, "viability (ATP), % of control": 73, "outcome": "inactive"}
{"gene": "Erg", "reagent no.": 1, "GFP, % of control": 79.6, "viability (ATP), % of control": 76.5, "outcome": "inactive"}
{"gene": "Erg", "reagent no.": 2, "GFP, % of control": 119, "viability (ATP), % of control": 52, "outcome": "inactive"}
{"gene": "Erg", "reagent no.": 3, "GFP, % of control": 118, "viability (ATP), % of control": 56.4, "outcome": "inactive"}
{"gene": "Frmd8", "reagent no.": 1, "GFP, % of control": 51.3, "viability (ATP), % of control": 47.9, "outcome": "inactive"}
{"gene": "Frmd8", "reagent no.": 2, "GFP, % of control": 55.3, "viability (ATP), % of control": 91.1, "outcome": "inactive"}
{"gene": "Frmd8", "reagent no.": 3, "GFP, % of control": 66.3, "viability (ATP), % of control": 60.5, "outcome": "inactive"}
{"gene": "Ubxn8", "reagent no.": 1, "GFP, % of control": 55.8, "viability (ATP), % of control": 78.5, "outcome": "inactive"}
{"gene": "Ubxn8", "reagent no.": 2, "GFP, % of control": 56.3, "viability (ATP), % of control": 69.9, "outcome": "inactive"}
{"gene": "Ubxn8", "reagent no.": 3, "GFP, % of control": 109, "viability (ATP), % of control": 119, "outcome": "inactive"}
{"gene": "Map3k7", "reagent no.": 1, "GFP, % of control": 92.2, "viability (ATP), % of control": 99.3, "outcome": "inactive"}
{"gene": "Scn4b", "reagent no.": 1, "GFP, % of control": 73.8, "viability (ATP), % of control": 60.6, "outcome": "inactive"}
{"gene": "Scn4b", "reagent no.": 2, "GFP, % of control": 156, "viability (ATP), % of control": 73.3, "outcome": "active"}
{"gene": "Scn4b", "reagent no.": 3, "GFP, % of control": 85.9, "viability (ATP), % of control": 97, "outcome": "inactive"}
{"gene": "Gpr137b", "reagent no.": 1, "GFP, % of control": 89.8, "viability (ATP), % of control": 58.6, "outcome": "inactive"}
{"gene": "Gpr137b", "reagent no.": 2, "GFP, % of control": 104, "viability (ATP), % of control": 89.2, "outcome": "inactive"}
{"gene": "Gpr137b", "reagent no.": 3, "GFP, % of control": 92.7, "viability (ATP), % of control": 54.2, "outcome": "inactive"}
{"gene": "Or8g54", "reagent no.": 1, "GFP, % of control": 98.5, "viability (ATP), % of control": 65.3, "outcome": "inactive"}
{"gene": "Or8g54", "reagent no.": 2, "GFP, % of control": 58.5, "viability (ATP), % of control": 67, "outcome": "inactive"}
{"gene": "Or8g54", "reagent no.": 3, "GFP, % of control": 51.9, "viability (ATP), % of control": 54.6, "outcome": "inactive"}
